No constants are given. Whether binding was seen depends on the method and setting. Binding seen in cells or lysates may run through a third protein. These calls come from enrichment with a bait or labelling near it, and not all partners need be listed.
Tests used:
[1] = biological target: T1, RSR-2, the Caenorhabditis elegans ortholog of human SRm300/SRRM2 (C. elegans (endogenous in N2 worms)) (UniProt Q9U213); experiment: affinity purification with mass spectrometry; anti-RSR-2 immunoprecipitate and control rabbit IgG immunoprecipitate from mixed-stage worms run on two-dimensional gels, silver-stained; one differential spot excised, in-gel digestion, LC-MS/MS
T1 sequence: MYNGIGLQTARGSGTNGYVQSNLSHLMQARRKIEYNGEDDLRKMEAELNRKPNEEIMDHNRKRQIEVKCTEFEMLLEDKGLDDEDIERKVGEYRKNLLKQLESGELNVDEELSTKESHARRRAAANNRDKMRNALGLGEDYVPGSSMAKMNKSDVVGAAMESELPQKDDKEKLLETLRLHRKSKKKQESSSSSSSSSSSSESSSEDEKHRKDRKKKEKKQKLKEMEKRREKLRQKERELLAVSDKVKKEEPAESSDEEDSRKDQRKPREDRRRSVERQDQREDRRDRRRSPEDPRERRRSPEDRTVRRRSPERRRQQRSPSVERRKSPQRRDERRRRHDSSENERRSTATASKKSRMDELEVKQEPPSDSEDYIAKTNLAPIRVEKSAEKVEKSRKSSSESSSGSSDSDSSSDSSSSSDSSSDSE

[2] = biological target: T1, RSR-2, the Caenorhabditis elegans ortholog of human SRm300/SRRM2 (C. elegans (endogenous in N2 worms)); experiment: affinity purification with mass spectrometry; RSR-2-containing complexes immunopurified with anti-RSR-2 antibody from two biological replicates of wild type mixed-stage worms; eluate precipitated with acetone, digested with trypsin (MudPIT), LC-MS/MS; control unspecific rabbit IgG

binding [1]: binds | binding [2]: binds
B1: Pre-mRNA-processing factor 19 homolog (prp-19) (protein, UniProt Q10051 1-492)
chain: MSFVCGISGELTEDPVVSQVSGHIFDRRLIVKFIAENGTDPISHGELSEDQLVSLKSGGTGSAPRNVSGTSIPSLLKMLQDEWDTVMLNSFSLRQQLQIARQELSHSLYQHDAACRVISRLSKELTAAREALSTLKPHTSAKVDDDVSIDESEDQQGLSEAILAKLEEKSKSLTAERKQRGKNLPEGLAKTEELAELKQTASHTGIHSTGTPGITALDIKGNLSLTGGIDKTVVLYDYEKEQVMQTFKGHNKKINAVVLHPDNITAISASADSHIRVWSATDSSSKAIIDVHQAPVTDISLNASGDYILSASDDSYWAFSDIRSGKSLCKVSVEPGSQIAVHSIEFHPDGLIFGTGAADAVVKIWDLKNQTVAAAFPGHTAAVRSIAFSENGYYLATGSEDGEVKLWDLRKLKNLKTFANEEKQPINSLSFDMTGTFLGIGGQKVQVLHVKSWSEVVSLSDHSGPVTGVRFGENARSLVTCSLDKSLRVFSF

Reference: PMC3675011
